# The supplement of paper PMC8728848
# Some of the results follow.
# B1: Aap brpt (Staphylococcus epidermidis) (protein)
# chain: VDGDPITSTEEIPFDKKREFDPNLAPGTEKVVQKGEPGTKTITTPTTKNPLTGEKVGEGEPTEKITKQPVDEIVHYGGEEIKTGHKDEFDPNAPKGSQTTQPGKPGVKNPDTGEVVTPPVDDVTKYGPVDGDPITSTEEIPFDKKREFDPNLAPGTEKVVQKGEPGTKTITTPTTKNPLTGEKVGEGEPTEKITKQPVDEIVHYGGEEIKPGHKDEFDPNAPKGSQEDVPGKPGVKNPDTGEVVTPPVDDVTKYGPVDGDSITSTEEIPFDKKREFDPNLAPGTEKVVQKGEPGTKTITTPTTKNPLTGEKVGEGEPTEKITKQPVDEIVHYGGEQIPQGHKDEFDPNAPVDSKTEVPGKPGVKNPDTGEVVTPPVDDVTKYGPVDGDSITSTEEIPFDKKREFDPNLAPGTEKVVQKGEPGTKTITTPTTKNPLTGEKVGEGKSTEKVTKQPVDEIVEYGPTK
# How the values were obtained:
# Assay in all cases: glycan array binding signal (z-score within array); higher = stronger binding
# Settings in all cases: glycan notation: IUPAC condensed, linker removed
# [1] = biological target: Gal(b1-4)GlcNAc(b1-2)[Gal(b1-4)GlcNAc(b1-6)]Man(a1-6)[GlcNAc(b1-4)][Gal(b1-4)GlcNAc(b1-2)Man(a1-3)]Man(b1-4)GlcNAc(b1-4)GlcNAc
# Procedure, shortened: (§1)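 From the Consortium for Functional Glycomics database, 3228 arrays were curated, keeping only those whose protein sequence was available. Binding is given as a within-array Z-score averaged across arrays sharing a protein sequence and across linkers. Negative Z-scores can be read as non-binding.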
# [2] = biological target: Gal(b1-4)GlcNAc(b1-2)[Gal(b1-4)GlcNAc(b1-6)]Man(a1-6)[GlcNAc(b1-4)][Gal(b1-4)GlcNAc(b1-2)[Gal(b1-4)GlcNAc(b1-4)]Man(a1-3)]Man(b1-4)GlcNAc(b1-4)[Fuc(a1-6)]GlcNAc
# Procedure, shortened: as §1
# [3] = biological target: Gal(b1-4)GlcNAc(b1-3)Gal(b1-3)GalNAc
# Procedure, shortened: as §1
# [4] = biological target: Gal(b1-4)GlcNAc(b1-3)Gal(b1-3)GlcNAc
# Procedure, shortened: as §1
# [5] = biological target: Gal(b1-4)GlcNAc(b1-3)Gal(b1-4)Glc
# Procedure, shortened: as §1
# [6] = biological target: Gal(b1-4)GlcNAc(b1-3)Gal(b1-4)GlcNAc
# Procedure, shortened: as §1
# [7] = biological target: Gal(b1-4)GlcNAc(b1-3)Gal(b1-4)GlcNAc(b1-2)Man(a1-3)[Gal(b1-4)GlcNAc(b1-3)Gal(b1-4)GlcNAc(b1-2)Man(a1-6)]Man(b1-4)GlcNAc(b1-4)GlcNAc
# Procedure, shortened: as §1
# [8] = biological target: Gal(b1-4)GlcNAc(b1-3)Gal(b1-4)GlcNAc(b1-2)Man(a1-3)[Gal(b1-4)GlcNAc(b1-3)Gal(b1-4)GlcNAc(b1-2)Man(a1-6)]Man(b1-4)GlcNAc(b1-4)[Fuc(a1-6)]GlcNAc
# Procedure, shortened: as §1
# [9] = biological target: Gal(b1-4)GlcNAc(b1-3)Gal(b1-4)GlcNAc(b1-2)[Gal(b1-4)GlcNAc(b1-3)Gal(b1-4)GlcNAc(b1-6)]Man(a1-6)[Gal(b1-4)GlcNAc(b1-3)Gal(b1-4)GlcNAc(b1-2)Man(a1-3)]Man(b1-4)GlcNAc(b1-4)GlcNAc
# Procedure, shortened: as §1
# [10] = biological target: Gal(b1-4)GlcNAc(b1-3)Gal(b1-4)GlcNAc(b1-2)[Gal(b1-4)GlcNAc(b1-3)Gal(b1-4)GlcNAc(b1-6)]Man(a1-6)[Gal(b1-4)GlcNAc(b1-3)Gal(b1-4)GlcNAc(b1-2)Man(a1-3)]Man(b1-4)GlcNAc(b1-4)[Fuc(a1-6)]GlcNAc
# Procedure, shortened: as §1
# [11] = biological target: Gal(b1-4)GlcNAc(b1-3)Gal(b1-4)GlcNAc(b1-3)Gal(b1-4)GlcNAc
# Procedure, shortened: as §1
# [12] = biological target: Gal(b1-4)GlcNAc(b1-3)Gal(b1-4)GlcNAc(b1-3)Gal(b1-4)GlcNAc(b1-2)Man(a1-3)[Gal(b1-4)GlcNAc(b1-3)Gal(b1-4)GlcNAc(b1-3)Gal(b1-4)GlcNAc(b1-2)Man(a1-6)]Man(b1-4)GlcNAc(b1-4)GlcNAc
# Procedure, shortened: as §1
# [13] = biological target: Gal(b1-4)GlcNAc(b1-3)Gal(b1-4)GlcNAc(b1-3)Gal(b1-4)GlcNAc(b1-2)Man(a1-3)[Gal(b1-4)GlcNAc(b1-3)Gal(b1-4)GlcNAc(b1-3)Gal(b1-4)GlcNAc(b1-2)Man(a1-6)]Man(b1-4)GlcNAc(b1-4)[Fuc(a1-6)]GlcNAc
# Procedure, shortened: as §1
# [14] = biological target: Gal(b1-4)GlcNAc(b1-3)Gal(b1-4)GlcNAc(b1-3)Gal(b1-4)GlcNAc(b1-2)[Gal(b1-4)GlcNAc(b1-3)Gal(b1-4)GlcNAc(b1-3)Gal(b1-4)GlcNAc(b1-6)]Man(a1-6)[Gal(b1-4)GlcNAc(b1-3)Gal(b1-4)GlcNAc(b1-3)Gal(b1-4)GlcNAc(b1-2)Man(a1-3)]Man(b1-4)GlcNAc(b1-4)[Fuc(a1-6)]GlcNAc
# Procedure, shortened: as §1
# [15] = biological target: Gal(b1-4)GlcNAc(b1-3)Gal(b1-4)GlcNAc(b1-3)Gal(b1-4)GlcNAc(b1-3)Gal(b1-4)GlcNAc(b1-2)Man(a1-3)[Gal(b1-4)GlcNAc(b1-3)Gal(b1-4)GlcNAc(b1-3)Gal(b1-4)GlcNAc(b1-3)Gal(b1-4)GlcNAc(b1-2)Man(a1-6)]Man(b1-4)GlcNAc(b1-4)GlcNAc
# Procedure, shortened: as §1
# [16] = biological target: Gal(b1-4)GlcNAc(b1-3)Gal(b1-4)GlcNAc(b1-3)Gal(b1-4)GlcNAc(b1-3)Gal(b1-4)GlcNAc(b1-2)Man(a1-3)[Gal(b1-4)GlcNAc(b1-3)Gal(b1-4)GlcNAc(b1-3)Gal(b1-4)GlcNAc(b1-3)Gal(b1-4)GlcNAc(b1-2)Man(a1-6)]Man(b1-4)GlcNAc(b1-4)[Fuc(a1-6)]GlcNAc
# Procedure, shortened: as §1
# [17] = biological target: Gal(b1-4)GlcNAc(b1-3)Gal(b1-4)GlcNAc(b1-3)Gal(b1-4)GlcNAc(b1-3)Gal(b1-4)GlcNAc(b1-2)[Gal(b1-4)GlcNAc(b1-3)Gal(b1-4)GlcNAc(b1-3)Gal(b1-4)GlcNAc(b1-3)Gal(b1-4)GlcNAc(b1-6)]Man(a1-6)[Gal(b1-4)GlcNAc(b1-3)Gal(b1-4)GlcNAc(b1-3)Gal(b1-4)GlcNAc(b1-3)Gal(b1-4)GlcNAc(b1-2)Man(a1-3)]Man(b1-4)GlcNAc(b1-4)[Fuc(a1-6)]GlcNAc
# Procedure, shortened: as §1
# [18] = biological target: Gal(b1-4)GlcNAc(b1-3)Gal(b1-4)GlcNAc(b1-3)Gal(b1-4)GlcNAc(b1-3)Gal(b1-4)GlcNAc(b1-3)Gal(b1-4)GlcNAc(b1-2)Man(a1-3)[Gal(b1-4)GlcNAc(b1-3)Gal(b1-4)GlcNAc(b1-3)Gal(b1-4)GlcNAc(b1-3)Gal(b1-4)GlcNAc(b1-3)Gal(b1-4)GlcNAc(b1-2)Man(a1-6)]Man(b1-4)GlcNAc(b1-4)GlcNAc
# Procedure, shortened: as §1
# [19] = biological target: Gal(b1-4)GlcNAc(b1-3)Gal(b1-4)GlcNAc(b1-3)Gal(b1-4)GlcNAc(b1-3)Gal(b1-4)GlcNAc(b1-3)Gal(b1-4)GlcNAc(b1-2)Man(a1-3)[Gal(b1-4)GlcNAc(b1-3)Gal(b1-4)GlcNAc(b1-3)Gal(b1-4)GlcNAc(b1-3)Gal(b1-4)GlcNAc(b1-3)Gal(b1-4)GlcNAc(b1-2)Man(a1-6)]Man(b1-4)GlcNAc(b1-4)[Fuc(a1-6)]GlcNAc
# Procedure, shortened: as §1
# [20] = biological target: Gal(b1-4)GlcNAc(b1-3)Gal(b1-4)GlcNAc(b1-3)Gal(b1-4)GlcNAc(b1-3)Gal(b1-4)GlcNAc(b1-3)Gal(b1-4)GlcNAc(b1-2)[Gal(b1-4)GlcNAc(b1-3)Gal(b1-4)GlcNAc(b1-3)Gal(b1-4)GlcNAc(b1-3)Gal(b1-4)GlcNAc(b1-3)Gal(b1-4)GlcNAc(b1-6)]Man(a1-6)[Gal(b1-4)GlcNAc(b1-3)Gal(b1-4)GlcNAc(b1-3)Gal(b1-4)GlcNAc(b1-3)Gal(b1-4)GlcNAc(b1-3)Gal(b1-4)GlcNAc(b1-2)Man(a1-3)]Man(b1-4)GlcNAc(b1-4)[Fuc(a1-6)]GlcNAc
# Procedure, shortened: as §1
# [21] = biological target: Gal(b1-4)GlcNAc(b1-3)Gal(b1-4)GlcNAc(b1-3)Gal(b1-4)GlcNAc(b1-3)Gal(b1-4)GlcNAc(b1-3)Gal(b1-4)GlcNAc(b1-3)Gal(b1-4)GlcNAc(b1-2)Man(a1-3)[Gal(b1-4)GlcNAc(b1-3)Gal(b1-4)GlcNAc(b1-3)Gal(b1-4)GlcNAc(b1-3)Gal(b1-4)GlcNAc(b1-3)Gal(b1-4)GlcNAc(b1-3)Gal(b1-4)GlcNAc(b1-2)Man(a1-6)]Man(b1-4)GlcNAc(b1-4)GlcNAc
# Procedure, shortened: as §1
# [22] = biological target: Gal(b1-4)GlcNAc(b1-3)Gal(b1-4)GlcNAc(b1-3)GalNAc
# Procedure, shortened: as §1
# [23] = biological target: Gal(b1-4)GlcNAc(b1-3)Gal(b1-4)GlcNAc(b1-3)[Gal(b1-4)GlcNAc(b1-3)Gal(b1-4)GlcNAc(b1-6)]GalNAc
# Procedure, shortened: as §1
# [24] = biological target: Gal(b1-4)GlcNAc(b1-3)Gal(b1-4)GlcNAc(b1-6)[Gal(b1-3)]GalNAc
# Procedure, shortened: as §1
# [25] = biological target: Gal(b1-4)GlcNAc(b1-3)Gal(b1-4)[Fuc(a1-3)]GlcNAc(b1-3)Gal(b1-4)[Fuc(a1-3)]GlcNAc
# Procedure, shortened: as §1
# [26] = biological target: Gal(b1-4)GlcNAc(b1-3)GalNAc
# Procedure, shortened: as §1
# [27] = biological target: Gal(b1-4)GlcNAc(b1-3)[Fuc(a1-3)GlcNAc(b1-6)]Gal(b1-4)Glc
# Procedure, shortened: as §1
# [28] = biological target: Gal(b1-4)GlcNAc(b1-3)[Gal(b1-4)GlcNAc(b1-6)]Gal(b1-4)GlcNAc
# Procedure, shortened: as §1
# [29] = biological target: Gal(b1-4)GlcNAc(b1-3)[GlcNAc(b1-6)]Gal(b1-4)GlcNAc
# Procedure, shortened: as §1
# [30] = biological target: Gal(b1-4)GlcNAc(b1-6)Gal(b1-4)GlcNAc
# Procedure, shortened: as §1
# [31] = biological target: Gal(b1-4)GlcNAc(b1-6)GalNAc
# Procedure, shortened: as §1
# [32] = biological target: Gal(b1-4)GlcNAc(b1-6)[Gal(b1-3)]GalNAc
# Procedure, shortened: as §1
# [33] = biological target: Gal(b1-4)GlcNAc(b1-6)[Gal(b1-4)GlcNAc(b1-3)]GalNAc
# Procedure, shortened: as §1
# [34] = biological target: Gal(b1-4)GlcNAc6P
# Procedure, shortened: as §1
# [35] = biological target: Gal(b1-6)Gal
# Procedure, shortened: as §1
# [36] = biological target: Gal3S(b1-3)GalNAc
# Procedure, shortened: as §1
# [37] = biological target: Gal3S(b1-3)GlcNAc
# Procedure, shortened: as §1
# [38] = biological target: Gal3S(b1-3)[Fuc(a1-4)]GlcNAc
# Procedure, shortened: as §1
binder,measurement,setting,value
B1,glycan array binding signal (z-score),[1],0.189
same,glycan array binding signal (z-score),[2],-1.46
same,glycan array binding signal (z-score),[3],-0.487
same,glycan array binding signal (z-score),[4],-0.329
same,glycan array binding signal (z-score),[5],-0.147
same,glycan array binding signal (z-score),[6],0.624
same,glycan array binding signal (z-score),[7],3.34
same,glycan array binding signal (z-score),[8],0.377
same,glycan array binding signal (z-score),[9],-1.41
same,glycan array binding signal (z-score),[10],1.61
same,glycan array binding signal (z-score),[11],0.054
same,glycan array binding signal (z-score),[12],-0.935
same,glycan array binding signal (z-score),[13],1.74
same,glycan array binding signal (z-score),[14],2.44
same,glycan array binding signal (z-score),[15],-0.738
same,glycan array binding signal (z-score),[16],0.558
same,glycan array binding signal (z-score),[17],0.774
same,glycan array binding signal (z-score),[18],0.358
same,glycan array binding signal (z-score),[19],0.943
same,glycan array binding signal (z-score),[20],-0.071
same,glycan array binding signal (z-score),[21],2.19
same,glycan array binding signal (z-score),[22],1.72
same,glycan array binding signal (z-score),[23],0.593
same,glycan array binding signal (z-score),[24],-0.384
same,glycan array binding signal (z-score),[25],0.953
same,glycan array binding signal (z-score),[26],-0.434
same,glycan array binding signal (z-score),[27],0.214
same,glycan array binding signal (z-score),[28],-0.811
same,glycan array binding signal (z-score),[29],0.867
same,glycan array binding signal (z-score),[30],0.69
same,glycan array binding signal (z-score),[31],-0.071
same,glycan array binding signal (z-score),[32],-0.818
same,glycan array binding signal (z-score),[33],-0.18
same,glycan array binding signal (z-score),[34],0.45
same,glycan array binding signal (z-score),[35],0.447
same,glycan array binding signal (z-score),[36],0.101
same,glycan array binding signal (z-score),[37],-0.319
same,glycan array binding signal (z-score),[38],-0.284

# Pulled one by one from above (2):
binder,measurement,setting,value
B1,glycan array binding signal (z-score),[10],1.61
same,glycan array binding signal (z-score),[26],-0.434
